# Primary screen of a compound library

Chains of the proteins cited; added tags and fusions are not shown. Residues count along the entry.
UniProt Q4DA54, 1-478: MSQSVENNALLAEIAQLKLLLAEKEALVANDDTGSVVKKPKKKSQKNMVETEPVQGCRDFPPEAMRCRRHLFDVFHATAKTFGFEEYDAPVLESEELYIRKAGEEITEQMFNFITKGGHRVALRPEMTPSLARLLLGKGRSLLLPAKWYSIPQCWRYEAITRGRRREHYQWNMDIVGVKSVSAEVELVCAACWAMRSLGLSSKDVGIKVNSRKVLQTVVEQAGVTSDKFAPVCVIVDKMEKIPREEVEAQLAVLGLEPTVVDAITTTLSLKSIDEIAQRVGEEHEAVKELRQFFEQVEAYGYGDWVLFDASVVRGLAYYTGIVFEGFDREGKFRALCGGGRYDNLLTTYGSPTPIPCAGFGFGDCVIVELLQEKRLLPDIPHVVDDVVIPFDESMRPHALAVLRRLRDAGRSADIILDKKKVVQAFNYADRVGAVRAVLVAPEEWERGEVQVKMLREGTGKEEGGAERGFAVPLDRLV
UniProt A4I591, 1-473: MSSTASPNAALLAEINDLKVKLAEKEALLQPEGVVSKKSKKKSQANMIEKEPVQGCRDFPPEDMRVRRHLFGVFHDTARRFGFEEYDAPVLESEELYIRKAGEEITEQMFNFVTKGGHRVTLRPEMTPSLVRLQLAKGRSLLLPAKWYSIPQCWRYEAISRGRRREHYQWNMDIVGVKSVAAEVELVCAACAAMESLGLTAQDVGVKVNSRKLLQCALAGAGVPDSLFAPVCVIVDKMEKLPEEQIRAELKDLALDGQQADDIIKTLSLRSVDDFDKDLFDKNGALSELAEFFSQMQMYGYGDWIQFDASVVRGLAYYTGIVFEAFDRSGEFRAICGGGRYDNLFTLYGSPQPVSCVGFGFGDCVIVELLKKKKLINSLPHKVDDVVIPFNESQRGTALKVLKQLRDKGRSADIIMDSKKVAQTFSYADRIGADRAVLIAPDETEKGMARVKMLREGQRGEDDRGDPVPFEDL
UniProt Q8IDJ8, 1-583: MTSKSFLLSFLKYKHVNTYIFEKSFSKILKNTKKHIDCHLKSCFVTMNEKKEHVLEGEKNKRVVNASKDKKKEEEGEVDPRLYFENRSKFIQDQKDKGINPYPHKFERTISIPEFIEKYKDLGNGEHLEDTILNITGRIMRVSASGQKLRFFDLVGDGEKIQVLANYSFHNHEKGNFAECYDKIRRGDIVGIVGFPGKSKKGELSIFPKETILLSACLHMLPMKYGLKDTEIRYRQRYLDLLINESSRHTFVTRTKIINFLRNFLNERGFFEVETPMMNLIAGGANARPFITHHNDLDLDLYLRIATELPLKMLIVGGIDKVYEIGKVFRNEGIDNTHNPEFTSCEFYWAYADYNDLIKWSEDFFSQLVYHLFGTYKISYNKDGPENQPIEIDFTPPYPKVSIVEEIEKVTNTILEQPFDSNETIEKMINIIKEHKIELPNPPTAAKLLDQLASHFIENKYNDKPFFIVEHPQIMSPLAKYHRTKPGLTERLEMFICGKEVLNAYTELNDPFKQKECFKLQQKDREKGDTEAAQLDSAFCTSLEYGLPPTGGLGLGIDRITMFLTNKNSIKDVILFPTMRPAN
UniProt P9WNZ1, whole entry: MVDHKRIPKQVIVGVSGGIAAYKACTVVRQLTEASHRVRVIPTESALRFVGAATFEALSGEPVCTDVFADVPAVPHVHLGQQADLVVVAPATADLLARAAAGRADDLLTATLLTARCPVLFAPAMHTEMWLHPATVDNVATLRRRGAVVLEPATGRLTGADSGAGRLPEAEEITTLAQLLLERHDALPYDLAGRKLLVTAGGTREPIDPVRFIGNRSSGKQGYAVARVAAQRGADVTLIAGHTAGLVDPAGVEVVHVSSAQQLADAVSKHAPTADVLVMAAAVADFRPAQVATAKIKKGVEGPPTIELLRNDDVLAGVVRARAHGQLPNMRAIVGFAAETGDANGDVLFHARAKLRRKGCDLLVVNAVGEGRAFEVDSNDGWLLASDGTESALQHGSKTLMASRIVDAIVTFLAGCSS

The values are deposited in ChEMBL (CHEMBL3988442, “University of Dundee, Small-Polar-MMV Screening Library” (2021)).

The filed quantity is “Percent Effect” (%).
The controls that fix the scale are not given in the record; negative values are as filed.
This is an unselected part of the compounds tested.

TcHisRS: 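Histidine-tRNA ligase, Trypanosoma cruzi CL Brener (UniProt Q4DA54). Enzyme assay of histidyl-tRNA synthetase; the read-out is not stated. Concentration: 30 µM. The record gives no direction; compounds that gave an IC50 in retests scored well above the rest, so higher reads as stronger inhibition. Of about 69,000 compounds tested this way, about 31 (0.045%) reached 50% or more in at least one test.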
LiHisRS: 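Histidine-tRNA ligase, Leishmania infantum (UniProt A4I591). Enzyme assay of histidyl-tRNA synthetase; the read-out is not stated. Compounds at 30 µM. Higher reads as stronger inhibition (inferred: compounds with an IC50 in retests scored well above the rest). The assay is labelled LdHisRS but filed under L. infantum. Size under these conditions: about 69,000 compounds, about 410 of them at 50% or above in at least one test.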
Toxoplasma: 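Assay of Toxoplasma gondii numbers, read through their beta-galactosidase reporter with a colour substrate. Compounds at 10 µM. The record gives no direction; the compounds picked for IC50 retests had high values, so higher reads as fewer parasites. Of about 67,000 compounds tested this way, about 260 (0.38%) reached 50% or more in at least one test.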
PfKRS1: 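Lysine-tRNA ligase, Plasmodium falciparum 3D7 (UniProt Q8IDJ8). Enzyme assay of the cytosolic lysyl-tRNA synthetase in 384-well plates, read by luminescence. Tested at 30 µM. Higher reads as stronger inhibition, judged from the few compounds that gave an IC50. Size under these conditions: about 69,000 compounds, about 49 of them at 50% or above in at least one test.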
CoaBC: 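Enzyme assay of CoaBC with a phosphate dye (Biomol Green) read at 650 nm. Target: Coenzyme A biosynthesis protein CoaBC, Mycobacterium tuberculosis (UniProt P9WNZ1). Concentration: 30 µM. Higher reads as stronger inhibition, judged from the few compounds that gave an IC50. Most strong results did not repeat in a second test. Of about 67,000 compounds tested this way, about 40 (0.06%) reached 50% or more in at least one test.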

O=C(CCOc1cccc(F)c1)N1CCCC1Cn1cccn1 (stereo not given) gave TcHisRS: 5.202%; LiHisRS: -9.821%; Toxoplasma: -9.992%; PfKRS1: 0.7631%; CoaBC: 2.427%. For COCCn1cc(NC(=O)NC(C)c2ccc(Cl)s2)cn1 (stereo not given) the result was TcHisRS: 3.804%; LiHisRS: 16%; Toxoplasma: -0.5325%; PfKRS1: 2.749%; CoaBC: -16.12%. With O=C(Nc1cccc(CN2CCOC2=O)c1)N1CCSCC1 the screen gave TcHisRS: 1.626%; LiHisRS: 31.73%; Toxoplasma: 3.14%; PfKRS1: 4.444%; CoaBC: 7.173%. COc1ccc(C)c2c1N(C(=O)c1cnc(C)s1)CCC2 gave TcHisRS: 9.268%; LiHisRS: 28.81%; Toxoplasma: -0.2241%; PfKRS1: 7.145%; CoaBC: 5.144%. For N[C@H]1CC[C@@H](n2cc(C(=O)N[C@H]3CCCc4ccccc43)nn2)CC1 the result was TcHisRS: 2.146%; LiHisRS: 13.11%; Toxoplasma: 2.843%; PfKRS1: 5.674%; CoaBC: 2.751%.

With O=C(O)C(F)(F)F.[H][C@]12C[C@@H](Cn3cncn3)N(C(C)=O)[C@@]1([H])CCN(c1ncc(F)cn1)C2 the screen gave Toxoplasma: 5.049%. With O=C(CCCc1ccccn1)N1CCC(n2cccc2)CC1 the screen gave TcHisRS: 3.061%; LiHisRS: 22.22%; Toxoplasma: -2.924%; PfKRS1: 2.064%; CoaBC: -1.19%. c1cncc(CN2C[C@H]3CCC[C@@H](CNc4cnccn4)[C@H]3C2)c1 gave TcHisRS: 4%; LiHisRS: 19.18%; PfKRS1: 5.522%; CoaBC: -3.294%. Result for CC(C)(NC(=O)NCc1cccc(Br)c1)C(=O)O was TcHisRS: 0.4926%; LiHisRS: 9.211%; Toxoplasma: 0.2378%; PfKRS1: 9.668%; CoaBC: 3.871%. Result for Cc1cc(CNC(=O)c2cccs2)ccc1S(C)(=O)=O was TcHisRS: -22.68%; LiHisRS: 8.065%; Toxoplasma: -43.52%; PfKRS1: 0.5206%; CoaBC: 1.467%.

With Cc1ccc(C(=O)N2C[C@@H]3CCCO[C@@H]3[C@H](N(C)Cc3ccco3)C2)o1 the screen gave TcHisRS: 3.509%; LiHisRS: 3.226%; PfKRS1: -5.843%; CoaBC: -3.083%. With Cc1cnc(C)c(N2CC[C@H](N3CCOCC3)[C@H](CCCO)C2)n1 the screen gave TcHisRS: 2.762%; LiHisRS: 14.58%; Toxoplasma: 2.509%; PfKRS1: 1.206%; CoaBC: 8.036%. With O=C(NCCSC1CCCC1)c1cc(Cl)ccn1 the screen gave TcHisRS: 6.329%; LiHisRS: 12.5%; Toxoplasma: -0.9702%; PfKRS1: 3.611%; CoaBC: 0%. O=C(NCc1ccncc1)C1CN(c2nc3ccccc3s2)CCN1 (stereo not given) read TcHisRS: 1.676%; LiHisRS: 21.05%; Toxoplasma: 11.67%; PfKRS1: -0.6118%; CoaBC: 9.274%. For O=C(CCN1CCCC1c1cccs1)N1CCc2sccc2C1 (stereo not given) the result was TcHisRS: 1.504%; LiHisRS: 19.05%; Toxoplasma: -2.125%; PfKRS1: 6.285%; CoaBC: 5.575%.

For CS(=O)(=O)CCC(=O)Nc1cc(F)ccc1OCC1CCCO1 (stereo not given) the result was TcHisRS: 0%; LiHisRS: -9.615%; Toxoplasma: 1.85%; PfKRS1: -3.651%; CoaBC: 0.4779%. For CC(C)N1Cc2cccc(NCC(=O)N(C)C3CCCCC3)c2C1 the result was TcHisRS: 6.952%; LiHisRS: 3.665%; Toxoplasma: 0.6866%; PfKRS1: -1.119%; CoaBC: 6.087%. Result for O=C(O)C(F)(F)F.O=C(O)C(F)(F)F.[H][C@@]12CCN(Cc3cccc(C#N)c3)[C@@]1([H])CC(=O)N2CCN1CCCC1 was Toxoplasma: -25.84%. O=C(CN1CCCC1)N1CCCC1c1nc(O)cc(-c2ccccn2)n1 (stereo not given) read TcHisRS: -3.333%; LiHisRS: -10.31%; Toxoplasma: 17.16%; PfKRS1: -1.165%; CoaBC: -3.39%. Result for CCS(=O)(=O)c1ccc(N2CCC(NC(=O)C3CCCCC3)CC2)cc1 was TcHisRS: -2.041%; LiHisRS: 11.57%; Toxoplasma: 7.466%; PfKRS1: 5.132%; CoaBC: 1.873%.

CN(C)C(=O)N1CCN(C(=O)c2ccc(Cl)cc2)CC2(CNC(=O)C2)C1 (stereo not given) read TcHisRS: 5.747%; LiHisRS: -5.263%; Toxoplasma: 1.988%; PfKRS1: 2.304%; CoaBC: -4.277%. With Cc1nc(CN2CCCC(N(C)Cc3nnsc3Cl)C2)no1 (stereo not given) the screen gave TcHisRS: 1.132%; LiHisRS: 8%; Toxoplasma: 5.139%; PfKRS1: -1.158%; CoaBC: -5.897%. For CCS(=O)(=O)c1ccc(N2CCC(NC(=O)CCC(C)C)CC2)cc1 the result was TcHisRS: -1.245%; LiHisRS: 22.33%; Toxoplasma: -0.9912%; PfKRS1: -2.536%; CoaBC: 7.589%. Result for COCCc1noc(CN(C)c2nc(C)nc(C)c2C)n1 was TcHisRS: 10.45%; LiHisRS: 13.99%; Toxoplasma: -6.043%; PfKRS1: 3.05%; CoaBC: 11.85%. For O=C(NC1CCC1)c1n[nH]c2c1CNCC2 the result was TcHisRS: 1.942%; LiHisRS: 5.825%; Toxoplasma: 18.33%; PfKRS1: 4.566%; CoaBC: 3.053%.

CCN(Cc1noc(CC(C)C)n1)Cc1ccccc1Cl read TcHisRS: 9.551%; LiHisRS: 28.21%; Toxoplasma: 0.3917%; PfKRS1: 2.224%; CoaBC: -14.29%.

Once more, the final 2:

structure	TcHisRS	LiHisRS	Toxoplasma	PfKRS1	CoaBC
O=C(NC1CCC1)c1n[nH]c2c1CNCC2	1.942%	5.825%	18.33%	4.566%	3.053%
CCN(Cc1noc(CC(C)C)n1)Cc1ccccc1Cl	9.551%	28.21%	0.3917%	2.224%	-14.29%